Results taken from patent publication US12559769B2, “Methods and compositions for the activation of tumor cytotoxicity via human gamma-delta t-cells” (priority 2017, dated 2026).
For at least one compound, name, drawing or mass did not settle the structure.

System: xenografted PC3 tumors
Test: Tumor growth and survival of mice xenografted with transduced PC3 tumors, treated with or without PBMCs and/or zoledronic acid
Type: in vivo, NSG mice
Conditions: 100 μg/kg zoledronic acid, Lv-shFDPS-transduced and Lv-control-transduced mice

SMILES: O=P(O)(O)C(O)(Cn1ccnc1)P(=O)(O)O [zoledronic acid]
- effect on tumor size or survival: no obvious effect
